{"source": "PubChem BioAssay AID1508600", "about": "(Functional Genomics Laboratory (NCATS/FGL), 2020)", "note": "The campaign covered roughly 53,000 sequences. About 3,700 (7%) were called active.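 Rule for the calls: active = gene knockdowns whose robust z-score for IL-1 alpha signal is at least 2 or at most -2, so actives lie on both sides; inactive = the rest.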 The list shows a part of the results.", "data": [{"experiment": "Components of the Cytosolic LPS Sensing Pathway: Gene Identification via Genome-wide siRNA Screen;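 note: robust z of the log signal after scaling to non-targeting control siRNA wells of the plate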", "conditions": "RAW264.7 macrophages, IL-1a HTRF, actives lie on both sides, screened at 100 nM (by protocol), cells primed 5 h with Pam3CSK4 first", "how_it_was_run": "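Three distinct siRNAs per gene were tested singly at 100 nM in RAW264.7 macrophages. Following Pam3CSK4 priming and 24 hour LipidA transfection, IL-1a secretion was read by HTRF.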", "values": [{"sequence": "CCUUUCUAACUACUCUCACTT against Olfr149", "z-score": "inactive: 1.13"}, {"sequence": "GGCUUUGCUUUUUCUGUAUTT against Ppif", "z-score": "inactive: -0.218"}, {"sequence": "GGAAAAAACCACGAUUGAGTT against Pecam1", "z-score": "inactive: -0.434"}, {"sequence": "GGAAACAAAAGGAUUUCUGTT against Fbxl13", "z-score": "inactive: 1.24"}, {"sequence": "GCUCAGAUGUAUAGACUCATT against Ap2a2", "z-score": "inactive: 0.0961"}, {"sequence": "GCUGAGAGAAAGGUUCACATT against Tube1", "z-score": "inactive: 0.0484"}, {"sequence": "CCUCAUUGAGGUAAUGCGGTT against Samm50", "z-score": "inactive: -0.548"}, {"sequence": "GGCUCAGAAACUAUUGAUATT against Rpgr", "z-score": "inactive: 0.584"}, {"sequence": "GGCUUAUACGCUCCAUAUUTT against Gykl1", "z-score": "inactive: -0.214"}, {"sequence": "GCAACCCUUCUGAACAGGATT against Scyl2", "z-score": "inactive: 0.468"}, {"sequence": "GCCUUUACACUAAUGAUAATT against Cilp", "z-score": "inactive: 0.455"}, {"sequence": "GGUGGAAUAAUGGACAAGATT against Blnk", "z-score": "inactive: 0.0728"}, {"sequence": "GCGAGCUAUUCUUCCUUGUTT against Eif4a1", "z-score": "active: -2.13"}, {"sequence": "GGAUAAGAAGCGAUUUGAATT against Rcn2", "z-score": "inactive: -0.294"}, {"sequence": "GGAACUCUCCUUGCAUCAGTT against Lrrc6", "z-score": "inactive: 1.27"}, {"sequence": "GCCAAGAGCGAAAUGAGUGTT against Mcf2l", "z-score": "inactive: -0.999"}, {"sequence": "CCGACGAUGGCACAUUACATT against Ranbp3", "z-score": "inactive: 0.307"}, {"sequence": "GCUCUCUCCAUAUUAGUGGTT against Nkg7", "z-score": "inactive: 0.12"}, {"sequence": "CCGUUAUAUCUGCCAGUUUTT against Clec18a", "z-score": "inactive: 0.12"}, {"sequence": "GCUGAAGGCGACAAUGGAUTT against Ak2", "z-score": "inactive: -0.0901"}, {"sequence": "GCAAUAGGUUUAAAGACAUTT against Tgm5", "z-score": "inactive: -0.969"}, {"sequence": "GGACCAUUCAUUUCUGGAGTT against Riok3", "z-score": "inactive: 0.541"}, {"sequence": "GGAGAUAGAAUUGAAAUUCTT against Prl8a2", "z-score": "inactive: -1.26"}, {"sequence": "GCCCAUCAACCUAAUUUCATT against Tarbp2", "z-score": "inactive: -0.831"}, {"sequence": "GCAACUGAGGCUUUCUUUGTT against Copg1", "z-score": "inactive: -1.53"}, {"sequence": "GGGUGUUUGGAGAUUGUGUTT against Heatr3", "z-score": "active: -2.93"}, {"sequence": "GGAUCCACAAGCGACUCAUTT against Rps20", "z-score": "inactive: 1.04"}, {"sequence": "GGAGCUUACCAAGCACUACTT against Tspan18", "z-score": "inactive: -0.658"}, {"sequence": "GGAAGAGAAAGCAAAGUCATT against Ddx19a", "z-score": "inactive: -0.43"}, {"sequence": "GGAACACCAUGAAGAAGACTT against Gabarap", "z-score": "inactive: -0.147"}, {"sequence": "GGCUCGAAAGCGGUUCUUATT against Amfr", "z-score": "inactive: -0.828"}, {"sequence": "GGGUGGGUGUUCAUUAUUATT against Timd2", "z-score": "inactive: -1.29"}, {"sequence": "GGAUCAGAAGUUGAUAGAUTT against Tmem81", "z-score": "inactive: 0.197"}, {"sequence": "GGCAGACAAGUUGUUAAAATT against Nusap1", "z-score": "inactive: -0.913"}, {"sequence": "GCACCAUUUUGAUCGUCAUTT against Olfr519", "z-score": "inactive: 0.341"}, {"sequence": "GCGUAUUCAGCUGGGAUAGTT against Marveld2", "z-score": "active: -2.42"}, {"sequence": "GGACCACAUUCCCUUUUUUTT against Serinc5", "z-score": "inactive: 0.762"}, {"sequence": "GGUGUGGUGGACUAAAUAUTT against Zfp932", "z-score": "inactive: -0.987"}, {"sequence": "GGACUCUCAUUGAGGAACUTT against Znhit2", "z-score": "inactive: -0.206"}, {"sequence": "GGAUGACAGAGAUCUCACATT against Gsx1", "z-score": "inactive: -0.753"}, {"sequence": "GGAUCUGGAGAAGAUGAUGTT against Ret", "z-score": "inactive: -0.822"}, {"sequence": "GGAAAUCCAAGAACUUAAUTT against Fgfr1op2", "z-score": "inactive: 0.148"}, {"sequence": "GGAUUUACGACCUAACCAUTT against Naxd", "z-score": "inactive: 0.357"}, {"sequence": "GGCAAAAUGAAUGAGGAAATT against Ces1c", "z-score": "inactive: 1.01"}, {"sequence": "CCUUUGGUUUCCAGUGAGUTT against H2-M10.6", "z-score": "inactive: 0.204"}, {"sequence": "GGCUUGAAGAUGUCUAUGATT against Aptx", "z-score": "active: -2.19"}, {"sequence": "CCUUUGACUAAUCGUUUUGTT against Tpp1", "z-score": "inactive: 0.762"}, {"sequence": "GGAGAACCAAAACAGCGAATT against Hoxa2", "z-score": "inactive: -0.508"}, {"sequence": "CCUUUAGAGAAAAGUUCUATT against Pja2", "z-score": "inactive: 0.369"}, {"sequence": "GCUGUCCUUUUGAAAGAUATT against Rgs8", "z-score": "inactive: 0.933"}, {"sequence": "GGUUCUGUCCAAUGUCUGATT against Oas1f", "z-score": "inactive: 1.92"}, {"sequence": "ACUAUGUGCGAAACUCGCGTT against Lhfpl5", "z-score": "inactive: 0.526"}, {"sequence": "GGCCAUUCCUCAACAACAUTT against Mpzl3", "z-score": "inactive: -1.02"}, {"sequence": "GGCCUCAAUGCAGUAUCAATT against Shisal2b", "z-score": "inactive: 0.773"}, {"sequence": "GGACCUGGAAUUCGUCUGATT against Socs3", "z-score": "inactive: 0.938"}, {"sequence": "GCAGUUUUAACUGGCCAUATT against Nr2f2", "z-score": "inactive: 1.7"}, {"sequence": "CCUUCUUAUAGGUUAACUGTT against Pde10a", "z-score": "inactive: 1.49"}, {"sequence": "GGAGUUCAAGGCCAAGGAATT against Atp6v1g1", "z-score": "inactive: -0.935"}, {"sequence": "CCACUGCUUACUUCCUGUATT against Cd74", "z-score": "inactive: -0.38"}, {"sequence": "GGAGGAUGGGCAAGAAUAUTT against Eif1ax", "z-score": "inactive: 1.39"}, {"sequence": "GCUUGACUUGUUUUUGGCATT against Nfib", "z-score": "inactive: 0.893"}, {"sequence": "GCUUCGAGAGUUCAACAUCTT against Zmynd19", "z-score": "inactive: -0.144"}, {"sequence": "CGAAUCAUGUGUUUGCACATT against Camkk2", "z-score": "inactive: 1.21"}, {"sequence": "GCUGAACGGUCUCAAACAGTT against Cdca3", "z-score": "inactive: 0.395"}, {"sequence": "GGUCCUAGGUACAAUCACUTT against Slfn10-ps", "z-score": "active: -2.58"}, {"sequence": "GGAAAGACACAAGUGGAAATT against Nav2", "z-score": "inactive: 0.061"}, {"sequence": "GGCUACCGAGACAAUGCUUTT against Pcmtd1", "z-score": "inactive: 0.232"}, {"sequence": "GGACAGCAGCAACAACAUCTT against Dnase1l3", "z-score": "active: -2.04"}]}]}
